The values below come from PMC4299599, “Quantification of cytosolic interactions identifies Ede1 oligomers as key organizers of endocytosis” (Molecular Systems Biology, 2014).

Assay [1] deals with T1, Ede1Δ591–1381-TAP (S. cerevisiae) (UniProt P34216).
T1 sequence: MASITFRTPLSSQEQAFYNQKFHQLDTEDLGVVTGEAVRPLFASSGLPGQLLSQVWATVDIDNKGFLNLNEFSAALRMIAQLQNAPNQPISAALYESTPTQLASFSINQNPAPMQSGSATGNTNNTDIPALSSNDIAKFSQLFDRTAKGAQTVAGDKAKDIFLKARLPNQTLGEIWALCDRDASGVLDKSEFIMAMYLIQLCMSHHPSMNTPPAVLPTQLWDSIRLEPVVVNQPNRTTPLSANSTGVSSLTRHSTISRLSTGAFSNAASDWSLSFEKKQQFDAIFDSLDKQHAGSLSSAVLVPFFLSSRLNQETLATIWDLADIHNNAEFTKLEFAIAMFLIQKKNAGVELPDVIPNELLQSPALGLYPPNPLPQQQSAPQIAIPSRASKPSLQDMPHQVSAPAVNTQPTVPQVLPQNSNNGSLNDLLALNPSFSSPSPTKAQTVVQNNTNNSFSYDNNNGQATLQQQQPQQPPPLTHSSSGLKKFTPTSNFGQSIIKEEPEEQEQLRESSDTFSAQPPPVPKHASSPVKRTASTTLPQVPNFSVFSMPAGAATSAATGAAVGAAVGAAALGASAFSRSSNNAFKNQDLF
In words: tandem affinity purification (TAP) with immunoblot; diploid strain with a TAP-tagged and a GFP-tagged allele; purified proteins on SDS–PAGE, immunoblotted with α-GFP and α-TAP.

Assay [2] addresses Ede1 (Ede1-TAP / Ede1-GFP) (S. cerevisiae) (UniProt P34216). Described as above.
Assay [3] deals with T2, Syp1 (S. cerevisiae), P25623.
T2 chain: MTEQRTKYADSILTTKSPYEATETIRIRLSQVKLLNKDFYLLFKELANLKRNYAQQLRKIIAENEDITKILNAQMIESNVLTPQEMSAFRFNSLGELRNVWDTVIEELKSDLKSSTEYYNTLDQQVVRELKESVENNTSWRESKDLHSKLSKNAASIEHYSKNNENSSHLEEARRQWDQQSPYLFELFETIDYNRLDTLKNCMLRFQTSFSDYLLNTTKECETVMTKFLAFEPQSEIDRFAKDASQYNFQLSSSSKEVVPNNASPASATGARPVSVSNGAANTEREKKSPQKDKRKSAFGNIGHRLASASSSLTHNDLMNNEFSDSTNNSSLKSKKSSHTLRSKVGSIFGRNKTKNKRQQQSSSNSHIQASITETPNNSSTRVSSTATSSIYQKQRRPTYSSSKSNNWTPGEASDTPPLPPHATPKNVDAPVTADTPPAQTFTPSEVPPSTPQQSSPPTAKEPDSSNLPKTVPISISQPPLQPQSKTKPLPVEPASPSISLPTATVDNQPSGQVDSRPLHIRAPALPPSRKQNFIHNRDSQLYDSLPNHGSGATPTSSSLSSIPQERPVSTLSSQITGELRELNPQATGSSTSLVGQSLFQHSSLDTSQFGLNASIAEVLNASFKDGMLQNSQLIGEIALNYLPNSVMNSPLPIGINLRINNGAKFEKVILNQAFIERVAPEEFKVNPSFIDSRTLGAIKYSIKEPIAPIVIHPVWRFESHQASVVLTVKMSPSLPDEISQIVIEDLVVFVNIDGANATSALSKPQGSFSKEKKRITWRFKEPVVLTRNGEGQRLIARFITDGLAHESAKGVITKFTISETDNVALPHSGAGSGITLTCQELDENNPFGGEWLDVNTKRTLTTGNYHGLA
Put plainly: condition: detection range of FCCS: apparent KD up to ~1 μM; fluorescence cross-correlation spectroscopy (FCCS); self-interaction: living diploid yeast cells with one allele fused to (3)myeGFP and one to (3)mCherry, cytoplasm; apparent (effective) KD, to be taken as the upper limit since complexes of one colour are not seen. Particulars: remark: other sources report otherwise.

Assay [4] deals with T3, Sla1 (S. cerevisiae), P32790.
T3 chain: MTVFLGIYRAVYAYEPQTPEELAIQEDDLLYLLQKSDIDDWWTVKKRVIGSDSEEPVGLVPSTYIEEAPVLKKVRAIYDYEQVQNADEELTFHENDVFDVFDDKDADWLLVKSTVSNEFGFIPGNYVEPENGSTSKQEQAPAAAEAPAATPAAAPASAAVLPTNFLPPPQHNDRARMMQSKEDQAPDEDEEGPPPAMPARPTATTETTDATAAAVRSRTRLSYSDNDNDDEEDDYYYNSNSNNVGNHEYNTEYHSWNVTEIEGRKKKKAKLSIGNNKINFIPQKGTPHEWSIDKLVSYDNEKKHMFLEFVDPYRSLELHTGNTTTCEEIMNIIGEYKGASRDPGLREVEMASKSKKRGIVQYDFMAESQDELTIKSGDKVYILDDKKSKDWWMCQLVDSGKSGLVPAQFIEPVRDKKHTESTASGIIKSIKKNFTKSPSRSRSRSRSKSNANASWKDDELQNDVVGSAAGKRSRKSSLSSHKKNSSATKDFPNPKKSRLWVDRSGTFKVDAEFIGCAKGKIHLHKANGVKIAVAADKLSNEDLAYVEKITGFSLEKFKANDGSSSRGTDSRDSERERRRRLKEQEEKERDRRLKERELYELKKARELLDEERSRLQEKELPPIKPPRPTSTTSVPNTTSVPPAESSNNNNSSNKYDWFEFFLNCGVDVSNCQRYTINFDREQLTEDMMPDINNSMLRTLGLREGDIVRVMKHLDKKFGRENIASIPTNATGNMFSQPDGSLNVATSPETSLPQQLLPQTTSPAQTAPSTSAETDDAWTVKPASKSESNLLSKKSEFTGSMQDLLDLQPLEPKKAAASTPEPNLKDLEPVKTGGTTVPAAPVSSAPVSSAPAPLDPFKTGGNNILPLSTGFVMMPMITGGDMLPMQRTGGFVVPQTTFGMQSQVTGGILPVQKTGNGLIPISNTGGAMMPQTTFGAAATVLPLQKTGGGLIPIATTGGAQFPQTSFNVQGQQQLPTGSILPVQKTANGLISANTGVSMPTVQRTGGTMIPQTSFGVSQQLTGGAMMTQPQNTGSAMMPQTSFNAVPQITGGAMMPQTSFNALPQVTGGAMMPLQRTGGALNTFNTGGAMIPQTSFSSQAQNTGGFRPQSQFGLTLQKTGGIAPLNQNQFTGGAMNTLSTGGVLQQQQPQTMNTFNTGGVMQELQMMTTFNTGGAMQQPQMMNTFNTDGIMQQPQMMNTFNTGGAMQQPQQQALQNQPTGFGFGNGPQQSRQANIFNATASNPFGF
In words: condition: 1000 nM (only Kdeff-values < 1000 nM are shown); fluorescence cross-correlation spectroscopy (FCCS); in the cytoplasm of living yeast cells; first-named protein green (3myeGFP or 1myeGFP; eGFP for Don1), second red (3mCherry); self-interaction in diploid strains with one allele of each colour; apparent or effective KD (Kdeff) from single-cell measurements; only Kdeff values < 1000 nM are shown; values for …. The conditions noted are these: remark: other sources report otherwise.

For assay [5], the target named is T2, Syp1 (S. cerevisiae), P25623. Described as above. The conditions noted are these: remark: other sources report otherwise.

Results are given in words; binding and its absence hold for the method and conditions named. Some entries that bind do so weakly or less than the wild type. For some assays here: Where a sequence is shown, tags or fusion partners need not be part of it.

B1: Ede1 (Ede1-TAP / Ede1-GFP) (protein, UniProt P34216 1-1381)
chain: MASITFRTPLSSQEQAFYNQKFHQLDTEDLGVVTGEAVRPLFASSGLPGQLLSQVWATVDIDNKGFLNLNEFSAALRMIAQLQNAPNQPISAALYESTPTQLASFSINQNPAPMQSGSATGNTNNTDIPALSSNDIAKFSQLFDRTAKGAQTVAGDKAKDIFLKARLPNQTLGEIWALCDRDASGVLDKSEFIMAMYLIQLCMSHHPSMNTPPAVLPTQLWDSIRLEPVVVNQPNRTTPLSANSTGVSSLTRHSTISRLSTGAFSNAASDWSLSFEKKQQFDAIFDSLDKQHAGSLSSAVLVPFFLSSRLNQETLATIWDLADIHNNAEFTKLEFAIAMFLIQKKNAGVELPDVIPNELLQSPALGLYPPNPLPQQQSAPQIAIPSRASKPSLQDMPHQVSAPAVNTQPTVPQVLPQNSNNGSLNDLLALNPSFSSPSPTKAQTVVQNNTNNSFSYDNNNGQATLQQQQPQQPPPLTHSSSGLKKFTPTSNFGQSIIKEEPEEQEQLRESSDTFSAQPPPVPKHASSPVKRTASTTLPQVPNFSVFSMPAGAATSAATGAAVGAAVGAAALGASAFSRSSNNAFKNQDLFADGEASAQLSNATTEMANLSNQVNSLSKQASITNDKKSRATQELKRVTEMKNSIQIKLNNLRSTHDQNVKQTEQLEAQVLQVNKENETLAQQLAVSEANYHAAESKLNELTTDLQESQTKNAELKEQITNLNSMTASLQSQLNEKQQQVKQERSMVDVNSKQLELNQVTVANLQKEIDGLGEKISVYLTKQKELNDYQKTVEEQHAQLQAKYQDLSNKDTDLTDREKQLEERNRQIEEQENLYHQHVSKLQEMFDDLSQRKASFEKADQELKERNIEYANNVRELSERQMNLAMGQLPEDAKDIIAKSASNTDTTTKEATSRGNVHEDTVSKFVETTVENSNLNVNRVKDDEEKTERTESDVFDRDVPTLGSQSDSENANTNNGTQSGNETANPNLTETLSDRFDGDLNEYGIPRSQSLTSSVANNAPQSVRDDVELPETLEERDTINNTANRDNTGNLSHIPGEWEATPATASTDVLSNETTEVIEDGSTTKRANSNEDGESVSSIQESPKISAQPKAKTINEEFPPIQELHIDESDSSSSDDDEFEDTREIPSATVKTLQTPYNAQPTSSLEIHTEQVIKYPAPGTSPSHNEGNSKKASTNSILPVKDEFDDEFAGLEQAAVEEDNGADSESEFENVANAGSMEQFETIDHKDLDDELQMNAFTGTLTSSSNPTIPKPQVQQQSTSDPAQVSNDEWDEIFAGFGNSKAEPTKVATPSIPQQPIPLKNDPIVDASLSKGPIVNRGVATTPKSLAVEELSGMGFTEEEAHNALEKCNWDLEAATNFLLDSA
For B1, the figures for the binding entry in assay [1] and in assay [2] were “no binding” and “binds”, respectively.

B2: Syp1 (natural protein, S. cerevisiae, UniProt P25623 1-870, looked up)
chain: MTEQRTKYADSILTTKSPYEATETIRIRLSQVKLLNKDFYLLFKELANLKRNYAQQLRKIIAENEDITKILNAQMIESNVLTPQEMSAFRFNSLGELRNVWDTVIEELKSDLKSSTEYYNTLDQQVVRELKESVENNTSWRESKDLHSKLSKNAASIEHYSKNNENSSHLEEARRQWDQQSPYLFELFETIDYNRLDTLKNCMLRFQTSFSDYLLNTTKECETVMTKFLAFEPQSEIDRFAKDASQYNFQLSSSSKEVVPNNASPASATGARPVSVSNGAANTEREKKSPQKDKRKSAFGNIGHRLASASSSLTHNDLMNNEFSDSTNNSSLKSKKSSHTLRSKVGSIFGRNKTKNKRQQQSSSNSHIQASITETPNNSSTRVSSTATSSIYQKQRRPTYSSSKSNNWTPGEASDTPPLPPHATPKNVDAPVTADTPPAQTFTPSEVPPSTPQQSSPPTAKEPDSSNLPKTVPISISQPPLQPQSKTKPLPVEPASPSISLPTATVDNQPSGQVDSRPLHIRAPALPPSRKQNFIHNRDSQLYDSLPNHGSGATPTSSSLSSIPQERPVSTLSSQITGELRELNPQATGSSTSLVGQSLFQHSSLDTSQFGLNASIAEVLNASFKDGMLQNSQLIGEIALNYLPNSVMNSPLPIGINLRINNGAKFEKVILNQAFIERVAPEEFKVNPSFIDSRTLGAIKYSIKEPIAPIVIHPVWRFESHQASVVLTVKMSPSLPDEISQIVIEDLVVFVNIDGANATSALSKPQGSFSKEKKRITWRFKEPVVLTRNGEGQRLIARFITDGLAHESAKGVITKFTISETDNVALPHSGAGSGITLTCQELDENNPFGGEWLDVNTKRTLTTGNYHGLA
notes: Syp1, S. cerevisiae endocytic adaptor; Each copy carries one of the two tags; also called Syp1-3myeGFP; source: S. cerevisiae, chromosomally tagged at the endogenous locus, in living cells; not shown: 3myeGFP, C-terminal, kept; 3mCherry, C-terminal, kept
As for B2, the binding entry in assay [3], in assay [4] and in assay [5] was “no binding” in each case.
